No constants are given. Whether binding was seen depends on the method and setting. In cells and extracts the contact can be indirect. These calls come from enrichment with a bait or labelling near it, and not all partners need be listed.
Target: T1, Strep-SMCR8 full-length (SMCR8 wild-type) (human) (UniProt Q8TEV9)
T1 sequence: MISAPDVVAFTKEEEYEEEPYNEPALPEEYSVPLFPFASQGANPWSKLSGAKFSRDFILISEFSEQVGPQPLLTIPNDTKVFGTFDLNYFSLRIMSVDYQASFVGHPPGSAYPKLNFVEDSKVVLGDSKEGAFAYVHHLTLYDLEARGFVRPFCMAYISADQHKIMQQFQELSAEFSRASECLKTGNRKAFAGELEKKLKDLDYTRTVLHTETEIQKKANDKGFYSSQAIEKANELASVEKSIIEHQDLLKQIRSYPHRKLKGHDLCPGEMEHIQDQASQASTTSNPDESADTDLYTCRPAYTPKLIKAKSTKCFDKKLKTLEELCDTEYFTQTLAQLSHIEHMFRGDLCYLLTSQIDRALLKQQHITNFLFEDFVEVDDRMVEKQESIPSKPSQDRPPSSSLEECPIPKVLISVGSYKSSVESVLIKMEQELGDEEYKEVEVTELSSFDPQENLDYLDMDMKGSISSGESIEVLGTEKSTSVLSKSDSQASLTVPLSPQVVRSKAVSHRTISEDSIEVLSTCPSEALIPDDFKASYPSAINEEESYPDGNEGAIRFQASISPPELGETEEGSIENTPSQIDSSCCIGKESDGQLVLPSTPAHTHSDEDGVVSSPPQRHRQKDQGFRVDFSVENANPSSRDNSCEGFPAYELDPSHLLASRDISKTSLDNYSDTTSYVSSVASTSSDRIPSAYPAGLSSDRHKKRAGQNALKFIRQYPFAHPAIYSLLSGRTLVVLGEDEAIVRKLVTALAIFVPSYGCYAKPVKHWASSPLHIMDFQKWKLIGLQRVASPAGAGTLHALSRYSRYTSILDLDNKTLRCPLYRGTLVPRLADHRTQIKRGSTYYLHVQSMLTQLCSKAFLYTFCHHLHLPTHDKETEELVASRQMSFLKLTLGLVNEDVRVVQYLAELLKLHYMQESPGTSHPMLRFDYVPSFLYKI
Assay: affinity purification with mass spectrometry; Strep-SMCR8 (WT or ΔCC) and C9orf72 transfected into HEK293T; cells fed or starved 90 minutes (amino acid- and glucose-free media) before lysis; magnetic Strep-Tactin beads; label-free quantification (LFQ), triplicates

The chains behind the UniProt entries cited, without tags or fusion partners.
UniProt Q8TDY2: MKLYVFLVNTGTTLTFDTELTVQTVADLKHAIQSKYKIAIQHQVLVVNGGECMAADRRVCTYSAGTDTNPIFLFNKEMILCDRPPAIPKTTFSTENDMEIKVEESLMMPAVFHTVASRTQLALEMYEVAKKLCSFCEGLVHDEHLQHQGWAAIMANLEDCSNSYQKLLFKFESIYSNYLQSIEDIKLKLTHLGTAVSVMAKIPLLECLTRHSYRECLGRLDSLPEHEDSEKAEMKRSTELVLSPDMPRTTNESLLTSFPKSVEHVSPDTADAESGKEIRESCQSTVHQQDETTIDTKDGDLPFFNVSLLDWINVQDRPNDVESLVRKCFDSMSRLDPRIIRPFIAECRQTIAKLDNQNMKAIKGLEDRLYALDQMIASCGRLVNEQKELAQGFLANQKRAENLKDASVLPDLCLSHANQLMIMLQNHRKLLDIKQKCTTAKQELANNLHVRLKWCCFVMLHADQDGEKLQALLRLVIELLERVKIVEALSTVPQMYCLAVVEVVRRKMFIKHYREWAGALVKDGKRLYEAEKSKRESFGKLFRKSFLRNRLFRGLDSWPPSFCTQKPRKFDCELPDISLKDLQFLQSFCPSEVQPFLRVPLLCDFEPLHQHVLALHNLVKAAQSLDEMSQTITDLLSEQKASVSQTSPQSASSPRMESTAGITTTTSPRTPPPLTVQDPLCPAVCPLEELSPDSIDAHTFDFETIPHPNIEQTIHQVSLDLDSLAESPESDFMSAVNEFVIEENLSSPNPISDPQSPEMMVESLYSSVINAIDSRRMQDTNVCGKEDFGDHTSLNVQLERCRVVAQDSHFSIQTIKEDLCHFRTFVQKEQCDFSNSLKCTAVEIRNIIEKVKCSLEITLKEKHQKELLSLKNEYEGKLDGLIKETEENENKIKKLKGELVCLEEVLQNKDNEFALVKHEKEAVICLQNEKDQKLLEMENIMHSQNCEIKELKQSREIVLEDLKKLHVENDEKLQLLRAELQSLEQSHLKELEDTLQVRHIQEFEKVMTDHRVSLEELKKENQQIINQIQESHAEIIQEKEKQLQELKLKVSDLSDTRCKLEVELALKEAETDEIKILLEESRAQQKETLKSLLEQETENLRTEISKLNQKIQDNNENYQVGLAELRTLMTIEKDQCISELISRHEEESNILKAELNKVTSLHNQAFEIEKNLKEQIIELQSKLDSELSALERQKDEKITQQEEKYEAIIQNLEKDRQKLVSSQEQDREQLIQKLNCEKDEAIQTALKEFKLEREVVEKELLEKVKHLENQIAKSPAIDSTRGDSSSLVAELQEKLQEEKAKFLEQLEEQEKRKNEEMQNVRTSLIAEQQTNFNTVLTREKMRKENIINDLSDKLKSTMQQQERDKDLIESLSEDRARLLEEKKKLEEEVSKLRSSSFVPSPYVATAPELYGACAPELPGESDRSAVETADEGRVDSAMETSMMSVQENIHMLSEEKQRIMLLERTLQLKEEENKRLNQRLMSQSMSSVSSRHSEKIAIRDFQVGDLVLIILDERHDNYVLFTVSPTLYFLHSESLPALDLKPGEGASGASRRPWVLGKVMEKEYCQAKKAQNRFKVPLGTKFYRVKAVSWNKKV

binding: binds
Substance: FIP200 (in HEK293T cells) (from UniProt Q8TDY2 1-1594)

From PMC8336837, “Structure of the human C9orf72-SMCR8 complex reveals a multivalent protein interaction architecture” (PLoS Biology, 2021)
